Measured values from the supplement of paper PMC3334620.
Whole data set: some 33,000 sequences, median “E-score (-0.5 to 0.5)” near -0.0059, cut for the highest 2% near 0.26. Some of the results follow.

target: T1, Cin5 (UniProt P40917); assay: PBM E-score (8-mer binding enrichment) (E-score (-0.5 to 0.5)); higher = stronger / more preferred TF binding; conditions: protein concentration: 100 nM; construct: GST-full length
T1 sequence: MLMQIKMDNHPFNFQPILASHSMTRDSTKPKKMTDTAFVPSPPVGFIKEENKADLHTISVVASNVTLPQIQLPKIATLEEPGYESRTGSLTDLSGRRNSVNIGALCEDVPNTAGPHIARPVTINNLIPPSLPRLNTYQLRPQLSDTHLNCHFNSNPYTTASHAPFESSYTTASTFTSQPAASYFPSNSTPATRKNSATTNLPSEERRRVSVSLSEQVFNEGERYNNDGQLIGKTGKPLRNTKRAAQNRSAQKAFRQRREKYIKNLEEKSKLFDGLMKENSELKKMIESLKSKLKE
Summary of the method: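 Yeast transcription factors, full-length or as DNA-binding domains, were expressed with a GST tag using PURExpress in vitro transcription/translation. At about 100-200 nM they were applied to universal all-10-mer Agilent arrays, double-stranded by primer extension on fresh or once-stripped slides. Fluorescent anti-GST detected bound protein, and masliner normalised the scans. E-scores for ungapped eight-base words, pooled with reverse complements, came from the Universal PBM Analysis Suite.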

Sequence	PBM E-score
CCCGTCAA	-0.162
AACCTAAA	0.148
AGATGATA	0.212
AGAGTCAG	-0.0724
ATTGTGTA	0.142
AGCAGGAG	-0.154
GTGTCGAA	-0.148
CCGACTTA	0.0203
AACAAAGG	0.0888
CCACCACA	-0.106
CCTTGACA	-0.188
CTTTTTGA	-0.0601
ACATATCT	0.103
CGCTGTTA	-0.182
AATGTGTG	0.182
ACTTAGCC	-0.00336
AACCCTGG	-0.199
AGTGGGTG	0.203
CATCCATC	0.0549
GCGTCGAC	0.14
GTTCTTGA	0.00403
CCGAGTGC	-0.0394
CCCTTACA	-0.0251
CATGTTCA	0.0492
AATCCTGA	0.0405

Sequence	PBM E-score
ATTAGTAA	0.387
ATCGTTCG	0.138
GAGCCCTA	-0.241
CGTATACA	0.0738
CACGAATC	0.11
CTATTCCC	-0.0521
ATTGGGAA	0.123
TGCTTTAA	0.0498
GCGGCCCA	-0.14
GACGTTCA	-0.156
CTACATTC	-0.121
GCCCGTCA	-0.209
GGAAAACC	-0.0807
CTGGAAAC	-0.0097
GCTACACA	-0.0357
AACGACTC	-0.221
CAGCGCGC	0.0616
ACCGGCAG	-0.285
CACTTCTG	-0.0536
CATTTTTA	0.00398
AGCTGCTA	-0.0218
CACTAATC	0.247
GCTACGAC	-0.125
AATGAATC	0.0194
TAGAGCCA	-0.133

Sequence	PBM E-score
CATGAGTC	0.0809
AGTGCGGG	0.0515
CATGCTCC	-0.188
AGAACAGA	0.0819
CTTTTGAC	-0.0394
CGACCAAG	-0.139
TGGAAAAA	0.0939
AGTACTAG	0.0248
TATCCGCA	0.254
GAGAATCA	0.0127
CATGGGGA	-0.0804
ATTCCAGA	-0.0448
GATGTCAA	0.0458
CGTTTGTA	0.108
GCCGTTTA	0.0611
CCTACGGA	-0.278
GAAGTGGC	-0.0739
CCGACATC	0.0711
ATGTTCAC	-0.0152
AGGCGCTG	-0.0381
CTCTTCAG	-0.13
ACAAGGAC	-0.111
CGTTATTA	0.133
CTCGTCTC	0.0845
AGACCTCC	-0.394

Part of the list above in another layout:
Sequence,PBM E-score
TGGAAAAA,0.0939
TATCCGCA,0.254

Later entries:

Sequence	PBM E-score
ACGTACGC	0.0141
CAAGCATC	-0.048
GTAAGTTA	0.0587
ATCTGGTA	0.141
TATATATA	0.369
ATGCATGG	0.16
AGGGAATA	0.211
CAGGTGCA	-0.111
GTGAGCAC	-0.0804
CAACATAA	0.286
CAAATCGG	-0.00957
AATGGGAC	0.00472
CACGATCG	0.0963
CGGGACCC	-0.332
ATTATGAC	0.197
CTTGAGGA	-0.184
CTTTGTTA	0.103
CACGCTCG	-0.0809
AGCGCCCC	-0.26
ACCCGTCA	-0.149
AGTGCAAA	0.188
AAATACAC	0.125
CAACTGCA	0.0357
CGATATAG	0.00737
CAGCTAGG	-0.216

In a second layout: entries from further up.
GTAAGTTA
  PBM E-score = 0.0587
CAGGTGCA
  PBM E-score = -0.111
GTGAGCAC
  PBM E-score = -0.0804
AGTGCAAA
  PBM E-score = 0.188

(further entries)

Sequence	PBM E-score
CACGTCTG	-0.0659
ACGTCACA	0.063
CGGTGAAC	0.0137
GGGCGACC	-0.0987
GCGGAACA	0.121
ACATATGA	0.072
GTCGTCCA	0.0267
CGGACTCC	-0.126
AGGGTTAG	-0.0867
AAGACCGG	-0.194
CCTCAGGC	-0.109
ACCCTTAC	0.0619
CGATAAAA	0.0912
AACCTTGC	-0.00136
CTTTCAAC	0.0155
AAGCCAGC	-0.0231
CTTCTATC	-0.144
CCGGCCTA	-0.0459
CGTGGCTC	-0.295
ATGTGAGA	0.195
CAACCCTA	-0.0917
ATAGTCGC	0.0285
ATCATTAC	0.204
ATTACTCG	0.208
ATACTGTG	0.0593

Sequence	PBM E-score
CCTCGCCC	0.0221
CCGCATTC	0.00609
ACCACTCA	-0.0537
CGCGGCCA	-0.216
CATCCTCC	-0.217
GTAGCTTA	0.279
AATGGCTG	0.0434
AGAACTTG	0.0123
ACAAGAAC	0.178
CCGCCATC	-0.0364
TATCTACA	0.18
GAGGTAAC	-0.0118
ACGGGGCT	-0.13
CTAATCAG	0.14
GTTGATTA	0.268
CAGCACAA	-0.0395
ACAGCGGA	0.052
AAGCGGGA	0.046
CCAACTGC	-0.043
CACCGAGA	0.00565
AACCGCAC	0.0806
CTCTACAA	-0.0634
GGGTCAGA	-0.276
AGATACAA	0.177
CACAATGG	0.104

Sequence	PBM E-score
CATCATTA	0.242
AGCGGCGG	-0.0102
AGCATATA	0.0988
GAGCATGC	-0.0912
CGCCCCAG	-0.125
CCTTGATC	-0.0761
ACATGAAG	-0.0435
ATTGCTTA	0.259
ACCAGAAT	0.0901
CTGTCGCA	-0.0934
ATAACGGC	0.0312
ACACATCG	-0.0963
CATAAACG	0.0174
CCACAGCG	-0.0604
GCCCGCCA	0.0033
GGCGTCAA	-0.0266
ACCCGCAT	0.193
ATTTTGTG	0.139
CAGCTTAG	0.0588
ATTTGCAC	0.122
CGTACATC	0.0537
ATGAGGGG	0.0909
